These are yes or no findings as the source states them, for the method shown. In cells and extracts the contact can be indirect. These calls come from enrichment with a bait or labelling near it, and not all partners need be listed.
Each molecule was assayed against Kv1.3-TurboID C-terminal fusion with the PDZ-binding domain removed (human) (UniProt P22001) (assay: proximity labelling; TurboID fused to Kv1.3, stably expressed in Jurkat T-cells; 200 μM biotin for 1 h; lysis in 8 M urea; biotinylated proteins enriched on streptavidin magnetic beads; label-free quantitative MS against untransduced Jurkat T-cells or between lines (>4-fold, p<0.05; n=3)).

Chains of the proteins cited; added tags and fusions are not shown. Residues count along the entry.
UniProt P22001, residues 53-572: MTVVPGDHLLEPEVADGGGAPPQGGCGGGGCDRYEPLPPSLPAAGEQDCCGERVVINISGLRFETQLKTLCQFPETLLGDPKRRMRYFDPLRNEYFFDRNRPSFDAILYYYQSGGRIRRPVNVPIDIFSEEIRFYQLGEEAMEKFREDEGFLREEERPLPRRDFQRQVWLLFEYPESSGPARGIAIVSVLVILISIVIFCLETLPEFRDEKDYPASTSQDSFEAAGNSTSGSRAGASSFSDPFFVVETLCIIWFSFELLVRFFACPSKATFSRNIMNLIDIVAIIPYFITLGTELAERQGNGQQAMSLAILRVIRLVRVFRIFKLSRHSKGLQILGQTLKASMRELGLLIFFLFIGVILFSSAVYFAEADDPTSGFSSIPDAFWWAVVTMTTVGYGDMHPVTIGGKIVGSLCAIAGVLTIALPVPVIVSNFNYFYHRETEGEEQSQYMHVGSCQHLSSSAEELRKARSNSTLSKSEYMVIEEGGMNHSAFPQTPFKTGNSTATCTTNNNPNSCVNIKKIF
UniProt P10619, residues 29-480: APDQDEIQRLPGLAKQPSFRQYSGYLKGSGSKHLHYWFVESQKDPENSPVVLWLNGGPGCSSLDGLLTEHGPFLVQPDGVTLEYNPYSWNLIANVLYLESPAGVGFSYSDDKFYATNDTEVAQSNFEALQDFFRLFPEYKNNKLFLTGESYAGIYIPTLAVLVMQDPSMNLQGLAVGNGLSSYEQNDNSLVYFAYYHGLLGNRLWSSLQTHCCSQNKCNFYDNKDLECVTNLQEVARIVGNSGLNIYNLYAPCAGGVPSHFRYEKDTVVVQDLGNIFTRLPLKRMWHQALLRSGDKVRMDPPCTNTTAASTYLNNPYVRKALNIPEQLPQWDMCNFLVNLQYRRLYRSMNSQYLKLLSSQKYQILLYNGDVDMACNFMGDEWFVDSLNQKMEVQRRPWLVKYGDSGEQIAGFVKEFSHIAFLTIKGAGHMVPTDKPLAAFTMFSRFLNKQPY
UniProt Q13574: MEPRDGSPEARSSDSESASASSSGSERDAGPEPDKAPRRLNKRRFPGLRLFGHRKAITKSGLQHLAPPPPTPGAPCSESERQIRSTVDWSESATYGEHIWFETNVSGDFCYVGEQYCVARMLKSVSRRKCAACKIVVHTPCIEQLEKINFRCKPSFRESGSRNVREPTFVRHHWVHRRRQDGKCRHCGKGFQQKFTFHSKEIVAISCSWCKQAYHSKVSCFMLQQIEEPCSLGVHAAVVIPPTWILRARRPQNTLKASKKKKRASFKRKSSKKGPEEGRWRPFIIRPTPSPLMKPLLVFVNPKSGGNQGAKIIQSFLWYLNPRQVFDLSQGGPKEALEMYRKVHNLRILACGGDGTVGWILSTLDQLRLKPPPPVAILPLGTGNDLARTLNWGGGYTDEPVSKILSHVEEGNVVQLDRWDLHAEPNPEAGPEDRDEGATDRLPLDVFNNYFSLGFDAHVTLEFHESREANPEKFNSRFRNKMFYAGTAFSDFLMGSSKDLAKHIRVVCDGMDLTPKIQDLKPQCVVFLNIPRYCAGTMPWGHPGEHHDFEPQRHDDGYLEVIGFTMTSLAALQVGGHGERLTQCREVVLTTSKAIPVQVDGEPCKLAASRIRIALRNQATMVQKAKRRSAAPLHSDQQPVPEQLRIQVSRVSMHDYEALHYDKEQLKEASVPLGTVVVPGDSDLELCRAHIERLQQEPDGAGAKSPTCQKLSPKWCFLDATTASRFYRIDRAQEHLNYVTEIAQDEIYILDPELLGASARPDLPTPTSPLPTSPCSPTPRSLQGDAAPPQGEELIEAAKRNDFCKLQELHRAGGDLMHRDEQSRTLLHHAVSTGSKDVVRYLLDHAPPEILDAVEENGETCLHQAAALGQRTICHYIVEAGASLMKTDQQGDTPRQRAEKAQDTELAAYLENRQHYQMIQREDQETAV
UniProt P06241: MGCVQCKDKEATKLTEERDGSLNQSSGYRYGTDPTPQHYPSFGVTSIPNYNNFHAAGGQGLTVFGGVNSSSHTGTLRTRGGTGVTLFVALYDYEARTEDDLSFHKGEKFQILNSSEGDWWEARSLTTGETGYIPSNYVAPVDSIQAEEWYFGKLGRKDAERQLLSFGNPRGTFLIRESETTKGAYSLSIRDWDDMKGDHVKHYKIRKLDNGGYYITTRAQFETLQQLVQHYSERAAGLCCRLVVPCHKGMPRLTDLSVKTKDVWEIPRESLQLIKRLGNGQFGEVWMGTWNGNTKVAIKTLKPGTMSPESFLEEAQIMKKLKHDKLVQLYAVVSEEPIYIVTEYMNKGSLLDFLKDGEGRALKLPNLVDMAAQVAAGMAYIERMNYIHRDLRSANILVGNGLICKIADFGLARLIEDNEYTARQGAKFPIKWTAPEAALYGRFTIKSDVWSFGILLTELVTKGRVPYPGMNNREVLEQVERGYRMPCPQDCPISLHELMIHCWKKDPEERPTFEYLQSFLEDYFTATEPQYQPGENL
UniProt Q96RL7: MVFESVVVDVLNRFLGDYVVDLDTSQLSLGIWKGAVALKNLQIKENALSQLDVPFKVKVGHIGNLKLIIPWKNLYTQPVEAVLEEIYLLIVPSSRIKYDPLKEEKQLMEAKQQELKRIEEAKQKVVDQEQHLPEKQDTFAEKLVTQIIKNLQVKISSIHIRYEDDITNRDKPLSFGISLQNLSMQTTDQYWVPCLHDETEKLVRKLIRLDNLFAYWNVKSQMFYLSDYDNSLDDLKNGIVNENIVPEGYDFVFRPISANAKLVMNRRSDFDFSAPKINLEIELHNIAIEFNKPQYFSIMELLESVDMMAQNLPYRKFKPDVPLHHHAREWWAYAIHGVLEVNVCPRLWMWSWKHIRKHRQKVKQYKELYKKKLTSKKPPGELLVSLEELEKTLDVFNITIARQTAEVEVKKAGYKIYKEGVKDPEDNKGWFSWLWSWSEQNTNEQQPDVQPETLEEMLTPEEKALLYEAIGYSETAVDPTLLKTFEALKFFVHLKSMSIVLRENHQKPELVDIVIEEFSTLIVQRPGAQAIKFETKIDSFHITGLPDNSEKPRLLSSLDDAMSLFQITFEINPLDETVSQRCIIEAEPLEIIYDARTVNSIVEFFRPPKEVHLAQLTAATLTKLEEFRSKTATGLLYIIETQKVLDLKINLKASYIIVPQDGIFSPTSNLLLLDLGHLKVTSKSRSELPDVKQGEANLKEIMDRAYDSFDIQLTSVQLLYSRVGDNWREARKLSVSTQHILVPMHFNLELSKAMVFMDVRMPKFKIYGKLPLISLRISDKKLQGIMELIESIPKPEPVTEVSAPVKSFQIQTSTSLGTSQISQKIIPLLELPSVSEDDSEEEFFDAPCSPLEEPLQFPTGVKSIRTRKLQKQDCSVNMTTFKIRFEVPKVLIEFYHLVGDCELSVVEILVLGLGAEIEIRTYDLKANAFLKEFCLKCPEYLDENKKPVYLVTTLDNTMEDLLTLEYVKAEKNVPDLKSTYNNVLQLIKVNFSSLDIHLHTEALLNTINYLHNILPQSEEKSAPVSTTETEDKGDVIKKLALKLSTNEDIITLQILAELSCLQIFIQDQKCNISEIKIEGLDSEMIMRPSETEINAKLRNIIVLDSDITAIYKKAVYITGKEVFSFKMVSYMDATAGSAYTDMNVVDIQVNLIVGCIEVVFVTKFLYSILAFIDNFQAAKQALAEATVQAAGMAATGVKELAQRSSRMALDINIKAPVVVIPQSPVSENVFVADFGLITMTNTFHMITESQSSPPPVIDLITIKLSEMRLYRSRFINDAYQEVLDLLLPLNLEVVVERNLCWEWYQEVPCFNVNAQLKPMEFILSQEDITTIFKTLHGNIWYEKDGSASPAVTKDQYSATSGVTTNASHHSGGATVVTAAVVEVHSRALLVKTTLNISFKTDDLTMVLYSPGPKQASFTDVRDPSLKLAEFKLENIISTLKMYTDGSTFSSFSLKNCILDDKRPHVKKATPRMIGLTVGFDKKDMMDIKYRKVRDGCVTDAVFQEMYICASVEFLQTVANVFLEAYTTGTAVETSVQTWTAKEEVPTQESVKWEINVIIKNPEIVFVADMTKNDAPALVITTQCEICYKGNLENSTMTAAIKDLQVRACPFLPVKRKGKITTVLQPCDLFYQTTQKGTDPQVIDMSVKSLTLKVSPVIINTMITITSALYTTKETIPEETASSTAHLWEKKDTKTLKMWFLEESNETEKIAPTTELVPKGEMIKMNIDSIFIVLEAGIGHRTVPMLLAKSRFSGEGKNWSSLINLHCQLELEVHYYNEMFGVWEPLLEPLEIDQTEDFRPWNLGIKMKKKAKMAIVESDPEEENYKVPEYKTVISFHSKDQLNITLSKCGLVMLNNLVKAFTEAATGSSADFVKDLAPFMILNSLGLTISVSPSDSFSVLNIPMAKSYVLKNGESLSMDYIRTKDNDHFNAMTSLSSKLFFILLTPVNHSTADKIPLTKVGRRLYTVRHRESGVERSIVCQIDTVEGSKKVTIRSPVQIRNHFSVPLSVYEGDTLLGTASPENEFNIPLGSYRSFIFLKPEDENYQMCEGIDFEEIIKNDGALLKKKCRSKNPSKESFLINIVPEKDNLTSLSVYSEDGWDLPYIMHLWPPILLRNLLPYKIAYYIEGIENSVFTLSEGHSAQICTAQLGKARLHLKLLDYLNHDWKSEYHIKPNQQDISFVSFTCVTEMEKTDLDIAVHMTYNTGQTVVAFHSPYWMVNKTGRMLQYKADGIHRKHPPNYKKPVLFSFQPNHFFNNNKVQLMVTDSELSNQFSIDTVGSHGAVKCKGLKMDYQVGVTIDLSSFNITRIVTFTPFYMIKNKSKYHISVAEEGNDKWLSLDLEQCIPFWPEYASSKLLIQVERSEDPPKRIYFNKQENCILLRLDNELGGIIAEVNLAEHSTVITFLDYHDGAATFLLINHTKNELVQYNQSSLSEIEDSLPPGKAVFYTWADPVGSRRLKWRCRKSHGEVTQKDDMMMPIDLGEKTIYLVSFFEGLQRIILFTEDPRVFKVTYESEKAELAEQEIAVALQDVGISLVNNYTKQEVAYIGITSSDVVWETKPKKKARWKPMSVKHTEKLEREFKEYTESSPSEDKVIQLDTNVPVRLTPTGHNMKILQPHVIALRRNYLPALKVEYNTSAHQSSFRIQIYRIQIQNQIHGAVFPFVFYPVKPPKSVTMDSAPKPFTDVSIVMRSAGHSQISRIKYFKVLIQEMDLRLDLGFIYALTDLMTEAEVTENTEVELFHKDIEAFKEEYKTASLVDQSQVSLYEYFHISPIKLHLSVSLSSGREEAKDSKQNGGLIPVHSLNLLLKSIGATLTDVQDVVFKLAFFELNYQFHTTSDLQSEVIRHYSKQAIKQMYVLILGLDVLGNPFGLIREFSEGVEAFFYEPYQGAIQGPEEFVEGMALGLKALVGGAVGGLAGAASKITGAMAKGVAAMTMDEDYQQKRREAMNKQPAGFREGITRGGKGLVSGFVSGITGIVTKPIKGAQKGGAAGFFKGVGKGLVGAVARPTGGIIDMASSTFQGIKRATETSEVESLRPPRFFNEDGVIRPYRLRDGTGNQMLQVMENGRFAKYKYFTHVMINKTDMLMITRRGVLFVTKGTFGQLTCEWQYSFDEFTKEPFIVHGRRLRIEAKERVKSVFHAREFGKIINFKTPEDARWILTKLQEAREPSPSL
UniProt Q969M3: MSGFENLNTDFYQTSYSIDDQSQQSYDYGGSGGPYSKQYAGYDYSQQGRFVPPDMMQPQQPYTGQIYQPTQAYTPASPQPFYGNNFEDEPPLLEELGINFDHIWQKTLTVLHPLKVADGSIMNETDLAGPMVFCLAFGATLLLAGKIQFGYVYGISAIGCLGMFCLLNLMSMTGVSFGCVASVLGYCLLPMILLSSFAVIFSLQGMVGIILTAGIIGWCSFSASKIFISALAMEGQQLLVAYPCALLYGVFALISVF

binding	Molecule
binds	Cathepsin A (from UniProt P10619 29-480)
binds	DGKZ (from UniProt Q13574 1-928)
binds	FYN (from UniProt P06241 1-537)
binds	MEN1 (from UniProt O00255 1-610)
binds	VPS13A (from UniProt Q96RL7 1-3174)
binds	YIPF5 (from UniProt Q969M3 1-257)
binds	STX18 (protein, UniProt Q9P2W9 1-335) MAVDITLLFRASVKTVKTRNKALGVAVGGGVDGSRDELFRRSPRPKGDFSSRAREVISHIGKLRDFLLEHRKDYINAYSHTMSEYGRMTDTERDQIDQDAQIFMRTCSEAIQQLRTEAHKEIHSQQVKEHRTAVLDFIEDYLKRVCKLYSEQRAIRVKRVVDKKRLSKLEPEPNTKTRESTSSEKVSQSPSKDSEENPATEERPEKILAETQPELGTWGDGKGEDELSPEEIQMFEQENQRLIGEMNSLFDEVRQIEGRVVEISRLQEIFTEKVLQQEAEIDSIHQLVVGATENIKEGNEDIREAIKNNAGFRVWILFFLVMCSFSLLFLDWYDS

Each molecule was assayed against N-terminal Kv1.3-TurboID (V5-TurboID-Kv1.3 fusion) (human) (UniProt P22001) in the same assay as above.

Molecule	binding
TMX1 (protein, UniProt Q9H3N1 27-280) RRSNVRVITDENWRELLEGDWMIEFYAPWCPACQNLQPEWESFAEWGEDLEVNIAKVDVTEQPGLSGRFIITALPTIYHCKDGEFRRYQGPRTKKDFINFISDKEWKSIEPVSSWFGPGSVLMSSMSALFQLSMWIRTCHNYFIEDLGLPVWGSYTVFALATLFSGLLLGLCMIFVADCLCPSKRRRPQPYPYPSKKLLSESAQPLKKVEEEQEADEEDVSEEEAESKEGTNKDFPQNAIRQRSLGPSLATDKS	binds
HTATSF1 (protein, UniProt O43719 1-755) MSGTNLDGNDEFDEQLRMQELYGDGKDGDTQTDAGGEPDSLGQQPTDTPYEWDLDKKAWFPKITEDFIATYQANYGFSNDGASSSTANVEDVHARTAEEPPQEKAPEPTDARKKGEKRKAESGWFHVEEDRNTNVYVSGLPPDITVDEFIQLMSKFGIIMRDPQTEEFKVKLYKDNQGNLKGDGLCCYLKRESVELALKLLDEDEIRGYKLHVEVAKFQLKGEYDASKKKKKCKDYKKKLSMQQKQLDWRPERRAGPSRMRHERVVIIKNMFHPMDFEDDPLVLNEIREDLRVECSKFGQIRKLLLFDRHPDGVASVSFRDPEEADYCIQTLDGRWFGGRQITAQAWDGTTDYQVEETSREREERLRGWEAFLNAPEANRGLRRSDSVSASERAGPSRARHFSEHPSTSKMNAQETATGMAFEEPIDEKKFEKTEDGGEFEEGASENNAKESSPEKEAEEGCPEKESEEGCPKRGFEGSCSQKESEEGNPVRGSEEDSPKKESKKKTLKNDCEENGLAKESEDDLNKESEEEVGPTKESEEDDSEKESDEDCSEKQSEDGSEREFEENGLEKDLDEEGSEKELHENVLDKELEENDSENSEFEDDGSEKVLDEEGSEREFDEDSDEKEEEEDTYEKVFDDESDEKEDEEYADEKGLEAADKKAEEGDADEKLFEESDDKEDEDADGKEVEDADEKLFEDDDSNEKLFDEEEDSSEKLFDDSDERGTLGGFGSVEEGPLSTGSSFILSSDDDDDDI	binds
TMPO (protein, UniProt P42166 1-694) MPEFLEDPSVLTKDKLKSELVANNVTLPAGEQRKDVYVQLYLQHLTARNRPPLPAGTNSKGPPDFSSDEEREPTPVLGSGAAAAGRSRAAVGRKATKKTDKPRQEDKDDLDVTELTNEDLLDQLVKYGVNPGPIVGTTRKLYEKKLLKLREQGTESRSSTPLPTISSSAENTRQNGSNDSDRYSDNEEGKKKEHKKVKSTRDIVPFSELGTTPSGGGFFQGISFPEISTRPPLGSTELQAAKKVHTSKGDLPREPLVATNLPGRGQLQKLASERNLFISCKSSHDRCLEKSSSSSSQPEHSAMLVSTAASPSLIKETTTGYYKDIVENICGREKSGIQPLCPERSHISDQSPLSSKRKALEESESSQLISPPLAQAIRDYVNSLLVQGGVGSLPGTSNSMPPLDVENIQKRIDQSKFQETEFLSPPRKVPRLSEKSVEERDSGSFVAFQNIPGSELMSSFAKTVVSHSLTTLGLEVAKQSQHDKIDASELSFPFHESILKVIEEEWQQVDRQLPSLACKYPVSSREATQILSVPKVDDEILGFISEATPLGGIQAASTESCNQQLDLALCRAYEAAASALQIATHTAFVAKAMQADISQAAQILSSDPSRTHQALGILSKTYDAASYICEAAFDEVKMAAHTMGNATVGRRYLWLKDCKINLASKNKLASTPFKGGTLFGGEVCKVIKKRGNKH	binds

Results, then the molecule that gave them:

binding	Molecule
binds	PLRG1 (protein, UniProt O43660 1-514) MVEEVQKHSVHTLVFRSLKRTHDMFVADNGKPVPLDEESHKRKMAIKLRNEYGPVLHMPTSKENLKEKGPQNATDSYVHKQYPANQGQEVEYFVAGTHPYPPGPGVALTADTKIQRMPSESAAQSLAVALPLQTKADANRTAPSGSEYRHPGASDRPQPTAMNSIVMETGNTKNSALMAKKAPTMPKPQWHPPWKLYRVISGHLGWVRCIAVEPGNQWFVTGSADRTIKIWDLASGKLKLSLTGHISTVRGVIVSTRSPYLFSCGEDKQVKCWDLEYNKVIRHYHGHLSAVYGLDLHPTIDVLVTCSRDSTARIWDVRTKASVHTLSGHTNAVATVRCQAAEPQIITGSHDTTIRLWDLVAGKTRVTLTNHKKSVRAVVLHPRHYTFASGSPDNIKQWKFPDGSFIQNLSGHNAIINTLTVNSDGVLVSGADNGTMHLWDWRTGYNFQRVHAAVQPGSLDSESGIFACAFDQSESRLLTAEADKTIKVYREDDTATEETHPVSWKPEIIKRKRF
binds	SART1 (protein, UniProt O43290 1-800) MGSSKKHRGEKEAAGTTAAAGTGGATEQPPRHREHKKHKHRSGGSGGSGGERRKRSRERGGERGSGRRGAEAEARSSTHGRERSQAEPSERRVKREKRDDGYEAAASSKTSSGDASSLSIEETNKLRAKLGLKPLEVNAIKKEAGTKEEPVTADVINPMALRQREELREKLAAAKEKRLLNQKLGKIKTLGEDDPWLDDTAAWIERSRQLQKEKDLAEKRAKLLEEMDQEFGVSTLVEEEFGQRRQDLYSARDLQGLTVEHAIDSFREGETMILTLKDKGVLQEEEDVLVNVNLVDKERAEKNVELRKKKPDYLPYAEDESVDDLAQQKPRSILSKYDEELEGERPHSFRLEQGGTADGLRERELEEIRAKLRLQAQSLSTVGPRLASEYLTPEEMVTFKKTKRRVKKIRKKEKEVVVRADDLLPLGDQTQDGDFGSRLRGRGRRRVSEVEEEKEPVPQPLPSDDTRVENMDISDEEEGGAPPPGSPQVLEEDEAELELQKQLEKGRRLRQLQQLQQLRDSGEKVVEIVKKLESRQRGWEEDEDPERKGAIVFNATSEFCRTLGEIPTYGLAGNREEQEELMDFERDEERSANGGSESDGEENIGWSTVNLDEEKQQQDFSASSTTILDEEPIVNRGLAAALLLCQNKGLLETTVQKVARVKAPNKSLPSAVYCIEDKMAIDDKYSRREEYRGFTQDFKEKDGYKPDVKIEYVDETGRKLTPKEAFRQLSHRFHGKGSGKMKTERRMKKLDEEALLKKMSSSDTPLGTVALLQEKQKAQKTPYIVLSGSGKSMNANTITK
binds	CDS2 (protein, UniProt O95674 1-445) MTELRQRVAHEPVAPPEDKESESEAKVDGETASDSESRAESAPLPVSADDTPEVLNRALSNLSSRWKNWWVRGILTLAMIAFFFIIIYLGPMVLMIIVMCVQIKCFHEIITIGYNVYHSYDLPWFRTLSWYFLLCVNYFFYGETVTDYFFTLVQREEPLRILSKYHRFISFTLYLIGFCMFVLSLVKKHYRLQFYMFGWTHVTLLIVVTQSHLVIHNLFEGMIWFIVPISCVICNDIMAYMFGFFFGRTPLIKLSPKKTWEGFIGGFFATVVFGLLLSYVMSGYRCFVCPVEYNNDTNSFTVDCEPSDLFRLQEYNIPGVIQSVIGWKTVRMYPFQIHSIALSTFASLIGPFGGFFASGFKRAFKIKDFANTIPGHGGIMDRFDCQYLMATFVNVYIASFIRGPNPSKLIQQFLTLRPDQQLHIFNTLRSHLIDKGMLTSTTEDE
